In PubChem BioAssay AID2685 (National Center for Advancing Translational Sciences (NCATS), 2010):
Hit rate of the full screen: of about 320,000 compounds, about 2,100 (0.66%) were called active. Calls come from the whole dose curve; as a rule, active = well fitted inhibition curve with a large enough effect in the signal ratio, with a control signal flat (not every such curve was filed as active); inconclusive = small, poorly fitted or top-dose-only effect, or effect the other way, or a change in a side signal; inactive = flat fitted curve, though single readings scatter; the % refers to the signal ratio. Inconclusive means that the source gave no clear call. A potency beside an inconclusive call is a rough fit, not a confirmed value.

assay: qHTS Assay for Lipid Storage Modulators in Drosophila S3 Cells; conditions: BODIPY lipid droplet fluorescence, 18-24 h, cells fed with added oleic acid; lipid storage change, negative = inhibition: at 46.1 µM (top of the series) unless noted
In short: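 Drosophila S3 cells loaded with oleic acid (400 uM, as added) and compounds at several concentrations; lipid droplets imaged by 488-nm laser-scanning cytometry, 500–530 nm intensity and object ratio to cell channel. Percent activity normalized to 20 uM Triacsin C.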
% is set by controls: 0 for no effect and ±100 for the full control effect; potency is the fitted concentration of half-maximal effect.

SMILES | lipid storage change, negative = inhibition | Potency
O=C(N/C(=C/c1ccccc1)C(=O)N1CCCCC1)c1ccccc1 | inconclusive: 56.4% | 
COc1ccccc1NC(=O)C(CCS(C)(=O)=O)N1C(=O)c2ccccc2C1=O (centres undefined) |  | inconclusive: 0.651 µM [falling, full curve]
CCC1=Nc2cc(C(=O)NCc3cccnc3)ccc2Sc2ccc(C)cc21 | inconclusive: 18.9% | 
COC(=O)C1CCN(C(=O)COC(=O)CNC(=O)c2ccc(Cl)cc2Cl)CC1 | inconclusive: -7.12% | 
CCOc1cccc(C(=O)Nc2ccc(NC(=O)c3ccccc3)c(C)c2)c1 | inconclusive: -44.1% | 
O=c1[nH]c(=O)n(CCO)c2nnn(Cc3ccccc3)c12 | inconclusive: 43.3% | 
Cc1cccc(-c2noc(CN(C)C(=O)c3ccoc3C)n2)c1 |  | inconclusive: 20.6 µM [activator, single point]
Cc1ccc(C(=O)Nc2ccc(F)cc2)o1 | inconclusive: 4.56% | 
CC1(C)Cc2ccccc2C(NNC(=O)c2ccccn2)=N1 |  | inconclusive: 0.366 µM [activator, full curve, poor fit]
CCCC(=O)C1=C(N(C)c2ccccc2)CC(C)(C)C(C(=O)OC)C1=O (centres undefined) | inconclusive: 17.2% | 
CCOC(=O)c1c(C)c(C(=O)NCc2ccccn2)c(C)n1C | inconclusive: -24.4% | 
CCN(c1ccccc1)S(=O)(=O)c1ccc(C(=O)Nc2ccc(C)cn2)cc1 | inconclusive | 
CN(C)C(CN1C(=O)C2CC=CCC2C1=O)c1cn(C)c2ccccc12 (centres undefined) | inconclusive: 6.93% | 
OCCOCCOCCn1c2ccccc2c2ccccc21 |  | inconclusive: 4.61 µM [falling, full curve, poor fit]
Cc1ccc2c(CC(=O)NCCc3ccc(S(N)(=O)=O)cc3)coc2c1 | inconclusive: -22.1% | 
CCN1C(=O)[C@H]2[C@@H](c3ccc(Cl)cc3)N3C(=O)CN(CCOC)C(=O)[C@@]3(Cc3ccccc3)[C@H]2C1=O | inconclusive: 10.1% | 
N/C(=N\OC(=O)CCCc1ccccc1)c1ccccc1 | inconclusive: 7.11% | 
O=C(NCc1ccccc1Cl)C1CCN(S(=O)(=O)N2CCCC2)CC1 | inconclusive: 7.88% | 
O=C(CN(C(=O)c1csnn1)c1cccc(Cl)c1)NC1CCCCC1 | inconclusive: 1.16% | 
O=C(COC(=O)COc1ccc(Cl)cc1)NC1CCS(=O)(=O)C1 (centres undefined) |  | inconclusive: 5.17 µM [activator, single point]
c1ccc2c(c1)CCCN2Cc1nnc2n1CCCCC2 |  | inconclusive: 6.51 µM [activator, single point]
O=C(Nc1ccc2oc(-c3ccncc3)nc2c1)c1ccc([N+](=O)[O-])o1 | inconclusive: -57.8% | 
O=C(CN1C(=O)NC2(CCc3ccccc32)C1=O)c1ccc(F)cc1 (centres undefined) | inconclusive: 6.69% | 
O=C(c1ccccc1)N1N=C(C(F)(F)F)CC1(O)c1ccccc1O (centres undefined) | inconclusive: 17% | 
COc1ccc2cc(CCNS(=O)(=O)c3ccc(NC(C)=O)cc3)c(=O)[nH]c2c1 | inconclusive: -52.4% | 

SMILES | lipid storage change, negative = inhibition | Potency
c1ccc(-c2csc(Nc3cccnc3)n2)nc1 |  | inconclusive: 2.59 µM [activator, full curve, poor fit]
CCn1c(CCNC(=O)c2ccc(OC)cc2)nnc1SCc1ccc(Cl)cc1Cl |  | inconclusive: 4.11 µM [falling, single point]
CC1=NN(C(=O)Cn2ccc([N+](=O)[O-])n2)C(O)(C(F)(F)F)C1 (centres undefined) | inconclusive: 8.87% | 
CC(=O)NC(CCS(C)(=O)=O)C(=O)Nc1cc(C)ccc1C (centres undefined) | inconclusive: 32.8% | 
CCc1ccc(N2CC(C(=O)Nc3cccnc3)CC2=O)cc1 (centres undefined) | inconclusive: 1.03% | 
S=c1[nH]nc(CSCCOc2ccccc2)o1 | inconclusive: -13.3% | 
COc1ccc2nc(NC(=O)C3CCN(C(=O)c4ccco4)CC3)sc2c1 | inconclusive: 53.8% | 
Cc1cc(C)cc(NC(=O)c2cccc3c2C(=O)N(C2CCCCC2)C3)c1 |  | inconclusive: 29.1 µM [activator, single point]
CC(=O)NCc1ccc(-c2csc(NC(=O)CCCc3nc4ccccc4c(=O)[nH]3)n2)cc1 | inconclusive: 52.3% | 
CC(C(=O)N(C)C1CCS(=O)(=O)C1)N1C(=O)/C(=C/c2cccs2)SC1=S (centres undefined) | inconclusive: 0.298% | 
COc1ccc(/C=N/n2c(-c3ccccc3)n[nH]c2=S)cc1 |  | inconclusive: 0.13 µM [activator, full curve, poor fit]
CCNC(=S)NNC(=O)c1cc(C)nc2ccccc12 | inconclusive: 18.2% | 
CCCN1C(=O)c2ccccc2NC1c1ccc(C)cc1 (centres undefined) | inconclusive: 0.992% | 
COCCNc1nc(-c2cc3ccccc3o2)cs1 | inconclusive: 5.27% | 
Cc1ccc(C)c(NC(=S)NCc2cccn2C)c1 |  | inconclusive: 18.4 µM [falling, single point]
CCc1c(C)sc(NC(=O)Cn2nc(C)c([N+](=O)[O-])c2C)c1C(N)=O |  | inconclusive: 0.146 µM [cytotoxic, full curve, poor fit]
O=C(Nc1cccnc1)c1cc(-c2ccc(Cl)c(Cl)c2)on1 |  | inconclusive: 2.91 µM [activator, full curve]
O=C1C2=C(NC(=S)NC2c2ccc(Cl)cc2)NC(c2ccc(Cl)cc2)N1c1ccc(Cl)cc1 (centres undefined) |  | inconclusive: 29.1 µM [cytotoxic, single point]
Nc1c(N(Cc2ccco2)C(=O)c2ccc(Cl)cc2)c(=O)[nH]c(=O)n1Cc1ccccc1 | inconclusive: 18.7% | 
COc1ccc(CNC(=O)COC(=O)c2ccc(F)c(S(=O)(=O)N3CCCCC3)c2)cc1OC | inconclusive: -26.5% | 
Cc1cc2c(c(=O)o1)C(CCC1CCCCC1)C(C#N)=C(N)O2 (centres undefined) | inconclusive: 13% | 
O=C(NCCC1=CCCCC1)c1ccc2c(=O)n3c(nc2c1)CCCCC3 |  | inconclusive: 0.92 µM [falling, full curve]
Cc1nc2ccccc2c(=O)n1Nc1cccc(Cl)c1 | inconclusive: 15.8% | 
COc1cccc(NC(=O)c2cccc(C(=O)Nc3cccc(OC)c3)n2)c1 |  | inconclusive: 7.31 µM [falling, partial curve]

Retrieved by structure from the entries so far (4):
SMILES | lipid storage change, negative = inhibition | Potency
CC(=O)NCc1ccc(-c2csc(NC(=O)CCCc3nc4ccccc4c(=O)[nH]3)n2)cc1 | inconclusive: 52.3% | 
CCc1c(C)sc(NC(=O)Cn2nc(C)c([N+](=O)[O-])c2C)c1C(N)=O |  | inconclusive: 0.146 µM [cytotoxic, full curve, poor fit]
Cc1nc2ccccc2c(=O)n1Nc1cccc(Cl)c1 | inconclusive: 15.8% | 
S=c1[nH]nc(CSCCOc2ccccc2)o1 | inconclusive: -13.3% | 
